Read-outs that look alike come from different tables or passages of the source. Results are given in words; binding and its absence hold for the method and conditions named. In cells and extracts the contact can be indirect. Some binding calls cover weakened binding; strength is not graded here. For some of these results: Sequences can lack the tags named with a protein.
How the values were obtained:
Assay in all cases: co-IP
FLAG-CLN3 [1] = target: T1, FLAG-CLN3 (UniProt Q13286)
T1 sequence: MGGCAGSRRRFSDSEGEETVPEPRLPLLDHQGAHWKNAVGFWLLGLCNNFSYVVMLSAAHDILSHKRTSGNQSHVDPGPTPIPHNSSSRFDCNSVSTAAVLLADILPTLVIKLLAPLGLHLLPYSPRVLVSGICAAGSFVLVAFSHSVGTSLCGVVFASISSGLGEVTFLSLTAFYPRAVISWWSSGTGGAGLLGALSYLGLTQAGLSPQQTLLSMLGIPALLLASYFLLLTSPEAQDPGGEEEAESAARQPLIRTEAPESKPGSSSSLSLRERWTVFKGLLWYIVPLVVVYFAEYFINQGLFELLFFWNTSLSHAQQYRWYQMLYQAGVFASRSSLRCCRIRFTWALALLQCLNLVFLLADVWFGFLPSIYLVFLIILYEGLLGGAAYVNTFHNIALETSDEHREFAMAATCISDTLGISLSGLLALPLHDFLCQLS

By UniProt entry, the sequences of proteins in these tests, tags left out.
UniProt P60879: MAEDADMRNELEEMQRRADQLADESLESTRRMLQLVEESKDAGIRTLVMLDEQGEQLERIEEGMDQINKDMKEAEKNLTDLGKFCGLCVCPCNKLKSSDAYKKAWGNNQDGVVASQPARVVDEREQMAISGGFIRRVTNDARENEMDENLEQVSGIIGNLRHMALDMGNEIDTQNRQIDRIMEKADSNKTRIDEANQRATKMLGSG
UniProt Q9Z1G4: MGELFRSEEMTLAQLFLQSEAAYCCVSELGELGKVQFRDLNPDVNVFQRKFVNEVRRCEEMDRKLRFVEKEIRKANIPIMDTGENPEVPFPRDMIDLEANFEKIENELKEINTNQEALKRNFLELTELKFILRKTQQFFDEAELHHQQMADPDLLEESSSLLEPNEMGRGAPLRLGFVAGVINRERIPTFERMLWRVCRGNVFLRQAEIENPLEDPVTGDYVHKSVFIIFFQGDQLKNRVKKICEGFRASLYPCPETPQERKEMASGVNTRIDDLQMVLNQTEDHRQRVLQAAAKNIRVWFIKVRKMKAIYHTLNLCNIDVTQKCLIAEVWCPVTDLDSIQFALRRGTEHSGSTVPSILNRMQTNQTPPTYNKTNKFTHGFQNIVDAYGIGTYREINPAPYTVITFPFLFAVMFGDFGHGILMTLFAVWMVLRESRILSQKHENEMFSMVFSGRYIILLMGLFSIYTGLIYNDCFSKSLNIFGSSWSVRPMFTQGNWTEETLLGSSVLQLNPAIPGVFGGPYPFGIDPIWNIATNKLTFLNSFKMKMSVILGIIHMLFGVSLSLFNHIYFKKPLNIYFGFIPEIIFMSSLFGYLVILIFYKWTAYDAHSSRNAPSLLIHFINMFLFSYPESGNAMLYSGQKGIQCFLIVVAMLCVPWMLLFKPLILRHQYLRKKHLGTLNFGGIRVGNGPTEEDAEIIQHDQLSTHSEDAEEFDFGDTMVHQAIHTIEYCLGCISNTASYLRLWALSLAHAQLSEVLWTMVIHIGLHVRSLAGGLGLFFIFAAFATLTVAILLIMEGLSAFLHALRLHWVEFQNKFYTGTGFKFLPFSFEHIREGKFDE
UniProt P51863: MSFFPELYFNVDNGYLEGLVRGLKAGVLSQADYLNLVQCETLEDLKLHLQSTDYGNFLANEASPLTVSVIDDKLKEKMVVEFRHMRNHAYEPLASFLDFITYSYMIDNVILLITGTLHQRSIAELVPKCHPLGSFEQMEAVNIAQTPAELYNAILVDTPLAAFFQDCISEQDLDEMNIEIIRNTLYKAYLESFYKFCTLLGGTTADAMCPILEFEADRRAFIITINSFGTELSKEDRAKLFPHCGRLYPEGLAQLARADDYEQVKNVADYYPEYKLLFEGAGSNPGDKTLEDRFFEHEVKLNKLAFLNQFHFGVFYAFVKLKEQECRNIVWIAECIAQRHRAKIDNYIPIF
UniProt Q8BVE3: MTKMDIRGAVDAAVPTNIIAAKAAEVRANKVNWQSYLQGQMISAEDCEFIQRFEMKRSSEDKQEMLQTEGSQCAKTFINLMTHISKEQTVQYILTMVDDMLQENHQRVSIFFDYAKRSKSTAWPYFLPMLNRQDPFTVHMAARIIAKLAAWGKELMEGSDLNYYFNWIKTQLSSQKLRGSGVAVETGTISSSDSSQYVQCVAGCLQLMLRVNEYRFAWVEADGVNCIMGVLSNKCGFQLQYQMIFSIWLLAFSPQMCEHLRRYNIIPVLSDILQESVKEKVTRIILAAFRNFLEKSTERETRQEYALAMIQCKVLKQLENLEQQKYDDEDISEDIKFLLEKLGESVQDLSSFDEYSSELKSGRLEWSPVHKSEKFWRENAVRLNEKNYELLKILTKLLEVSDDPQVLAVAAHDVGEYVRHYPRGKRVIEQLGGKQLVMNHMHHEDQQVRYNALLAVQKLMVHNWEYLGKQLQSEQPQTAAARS
UniProt P61264: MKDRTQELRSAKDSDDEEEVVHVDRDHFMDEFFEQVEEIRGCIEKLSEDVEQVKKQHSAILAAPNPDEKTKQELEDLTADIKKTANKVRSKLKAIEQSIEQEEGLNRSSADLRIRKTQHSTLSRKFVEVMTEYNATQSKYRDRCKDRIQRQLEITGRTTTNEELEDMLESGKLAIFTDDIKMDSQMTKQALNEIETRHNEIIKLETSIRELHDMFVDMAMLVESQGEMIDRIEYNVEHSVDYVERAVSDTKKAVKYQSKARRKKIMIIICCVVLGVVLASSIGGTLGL

[2] = target: Synaptosome associated protein 25 (mouse (endogenous in mouse cortex)) (UniProt P60879)
FLAG-CLN3 [3] = target: T1, FLAG-CLN3; remark: listed apart in the source
[4] = target: ATP6V0A1 (mouse (endogenous in mouse brain)) (UniProt Q9Z1G4)
[5] = target: ATPase H+ Transporting V0 subunit D1 (mouse (endogenous in Neuro2A and mouse brain)) (UniProt P51863)
[6] = target: ATPase H+ Transporting V1 Subunit H (mouse (endogenous in Neuro2A and mouse brain)) (UniProt Q8BVE3)
[7] = target: T2, Synaptobrevin homolog YKT6 (mouse (endogenous in Neuro2A and mouse brain)) (UniProt Q9CQW1)
T2 sequence: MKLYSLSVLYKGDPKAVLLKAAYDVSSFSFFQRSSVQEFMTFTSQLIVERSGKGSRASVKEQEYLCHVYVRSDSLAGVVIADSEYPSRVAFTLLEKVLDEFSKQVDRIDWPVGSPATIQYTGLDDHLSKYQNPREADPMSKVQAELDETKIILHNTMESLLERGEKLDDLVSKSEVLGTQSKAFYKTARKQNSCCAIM

[8] = target: Syntaxin 1B (mouse (endogenous in Neuro2A and mouse brain)) (UniProt P61264)
[9] = target: T3, Syntaxin 7 (mouse (endogenous in Neuro2A and mouse brain)) (UniProt O70439)
T3 sequence: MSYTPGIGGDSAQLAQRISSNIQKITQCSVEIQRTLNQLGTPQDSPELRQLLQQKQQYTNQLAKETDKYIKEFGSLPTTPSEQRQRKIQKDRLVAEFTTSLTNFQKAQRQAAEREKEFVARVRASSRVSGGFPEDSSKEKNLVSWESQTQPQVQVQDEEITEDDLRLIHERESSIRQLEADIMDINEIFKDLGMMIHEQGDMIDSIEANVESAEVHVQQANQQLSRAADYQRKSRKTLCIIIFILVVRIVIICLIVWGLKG

[10] = target: T4, VTI1B (mouse (endogenous in Neuro2A and mouse brain)) (UniProt O88384)
T4 sequence: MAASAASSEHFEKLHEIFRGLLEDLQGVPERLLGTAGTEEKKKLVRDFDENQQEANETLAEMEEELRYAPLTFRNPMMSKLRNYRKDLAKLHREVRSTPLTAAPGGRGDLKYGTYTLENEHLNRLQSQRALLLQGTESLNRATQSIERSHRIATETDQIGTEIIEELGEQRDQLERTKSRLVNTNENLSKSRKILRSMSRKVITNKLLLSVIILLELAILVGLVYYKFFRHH

## Syntaxin 1B (from UniProt P61264 1-288)
FLAG-CLN3 [1]
  binding: binds
[2]
  binding: binds

B1: TBC1D15 (protein, UniProt Q9CXF4 1-671)
chain: MAAAGVVSGKIIYEQEGVYIHSSCGKANDQDSLISGILRVLEKDAEVIVDWRPLDDALDSSSILCAGKDSSSVVEWTQAPKERAHRGSDQQSSYEAEWDMVTTVSFKKKPHTNGDAPGHRNGKSKWSFLFSLADLKSVKQSKEGMGWSYLVFCLKDDVMLPALHFHQGDSKLLIESLEKYVVLCESPQDSRTLLVNCQNKSLSQSFENLLDEPAYGLIQKIKKDPYTATMVGFSKVTNYIFDSLRGSDPSTHQRPPSEMADFLSDAIPGLKINQQEEPGFEVITRIDLGERPVVQRREPVSLEEWNKSLDPEGRLVAVESMKQKIFRGGLSHSLRKQAWKFLLGYFPWDSTKEERTQLQKQKTDEYFRMKLQWKSVSEAQEKRNSRLRDYRSLIEKDVNRTDRTNKFYEGQDNPGLILLHDILMTYCMYDFDLGYVQGMSDLLSPLLYVMENEVDAFWCFASYMDQMHQNFEEQMQGMKTQLIQLSTLLRLLDSGFCSYLESQDSGYLYFCFRWLLIRFKREFSFLDILRLWEVMWTELPCKNFHLLLCCAILESEKQQIMAKHYGFNEILKHINELSMKIDVEDILCKAEAISLQMAQCKELPQAVCEILGLQDSEITTPDSDTDENVGSPCPVSAFPSSTLPILAASEAKDDSPTQTLASPNACRLTPA
FLAG-CLN3 [3]
  binding: binds

B2: hCLN6 (protein, UniProt Q9NWW5 1-311)
chain: MEATRRRQHLGATGGPGAQLGASFLQARHGSVSADEAARTAPFHLDLWFYFTLQNWVLDFGRPIAMLVFPLEWFPLNKPSVGDYFHMAYNVITPFLLLKLIERSPRTLPRSITYVSIIIFIMGASIHLVGDSVNHRLLFSGYQHHLSVRENPIIKNLKPETLIDSFELLYYYDEYLGHCMWYIPFFLILFMYFSGCFTASKAESLIPGPALLLVAPSGLYYWYLVTEGQIFILFIFTFFAMLALVLHQKRKRLFLDSNGLFLFSSFALTLLLVALWVAWLWNDPVLRKKYPGVIYVPEPWAFYTLHVSSRH
[4]
  binding: binds
[5]
  binding: binds
[6]
  binding: binds
[7]
  binding: binds
[8]
  binding: binds
[9]
  binding: binds
[10]
  binding: binds

B3: TBC1D5 (protein, UniProt Q80XQ2 1-815)
chain: MYKSVSETRHPLQSEEQEVGIDPLFSYSNKTRGDLSQNGRGSNSTLDTEGTFNSYMKEWEELFVNNNYLATVRQKGINGQLRSSRFRSICWKLFLCVLPQDKSQWISKIKELRAWYSSIKEIHITNPRKAAGQQDLMINNPLSQDEGSLWNKFFQDKELRSMIEQDVKRTFPEMQFFQQENVRKILTDVLFCYARENEQLLYKQGMHELLAPIIFTLHCDHQAFLHASESAQPSEEMKTLLNPEYLEHDAYAMFSQLMETAEPWFSTFEHDGQKGKETLMAPIPFARPQDLGPTVAIVTKVNQIQDHLLKKHDIELYMHLNRLEIAPQIYGLRWVRLLFGREFPLQDLLVVWDALFADSLNLSLVDYVFTAMLLYIRDALISSNYQTCLGLLMHYPIIGDIHSLILKALFLRDPKRNPRPATYQFHPNLDYYKARGADLMNKSRTNARGAPLNIHKVSNSLINFGRKLISPASAPGSMGGPVPGNNSSSSFSAAIPTRTSTEAPRHHLLQQQQQQQHQQQQQQQPQQQQQQHQQQQQQQRLMKSESMPVQLNKGQSSKTISSSPSIESLPGGREFTGSPPPSATKKDSFFSNIARSRSHSKTMGRKESEEELEAQISFLQGQLNDLDAMCKYCAKVMDMHLVNIQDVVLQENLEKEDQILVSLAGLKQIKDILKGSLRFNQSQLEAGENEQITIADDHYCSSGQDQGSQVPRAAKQASSEMPGCTGGTTPDDFILVSKEDEGHRARGAFSGQAQPLLTLRSTSGKSRAPACSPLLFSDPLMGPASASASSSNPSSSPDDDSSKESGFTIVSPLDI
FLAG-CLN3 [3]
  binding: binds

B4: Synaptobrevin homolog YKT6 (protein, UniProt Q9CQW1 1-198)
chain: T2 sequence
FLAG-CLN3 [3]
  binding: binds

B5: VTI1B (protein, UniProt O88384 1-232)
chain: T4 sequence
FLAG-CLN3 [3]
  binding: binds

From paper doi:10.1101/2021.09.16.460691
